Data from patent publication US11634378B2, “Compounds and methods targeting GPER in calcium disorders” (Saint Louis University, priority 2017, dated 2023).
Some results were stated once for a whole list of compounds, not compound by compound.

Amino acid sequences for entries named in this document (tags omitted).
UniProt Q99527, whole entry: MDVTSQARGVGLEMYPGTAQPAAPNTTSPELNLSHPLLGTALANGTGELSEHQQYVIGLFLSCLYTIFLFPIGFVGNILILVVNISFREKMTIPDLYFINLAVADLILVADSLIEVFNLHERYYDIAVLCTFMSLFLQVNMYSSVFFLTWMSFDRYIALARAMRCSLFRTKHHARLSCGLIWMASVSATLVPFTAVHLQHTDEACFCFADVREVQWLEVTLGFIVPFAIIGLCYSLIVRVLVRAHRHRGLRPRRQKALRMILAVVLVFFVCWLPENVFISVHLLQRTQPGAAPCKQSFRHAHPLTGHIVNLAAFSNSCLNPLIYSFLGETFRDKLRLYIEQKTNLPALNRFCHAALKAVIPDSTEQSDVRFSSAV

target: T1, GPER (Homo sapiens, UniProt Q99527); test: Calcium mobilization agonism assay in indo1-AM-loaded HL-60 cells; format: cell-based; settings: tested in a similar fashion as G-1
T1 construct: HL-60 cells (a human promyelocytic leukemia cell line) which endogenously expresses GPER; host or cells: HL-60

SMILES	GPER agonism, concentration below which no agonism was shown [µM]
CC(C)c1ccc(NCc2ccc3ccccc3c2)c(C2CCCCC2)c1 [Compound 5]	≥ 10
Cc1ccc(CNc2ccc(C(C)(C)C)cc2C2CCCCC2)cc1 [Compound 21]	≥ 10
COc1ccc(CNc2ccc(C(C)(C)C)cc2C2CCCCC2)cc1 [Compound 22]	≥ 10
CC(C)(C)c1ccc(NCc2ccccc2)c(C2CCCCC2)c1 [Compound 23]	≥ 10
CC(C)(C)c1ccc(NCc2ccc(Cl)cc2)c(C2CCCCC2)c1 [Compound 24]	≥ 10
CC(C)(C)c1ccc(NCc2ccc(Cl)c(Cl)c2)c(C2CCCCC2)c1 [Compound 25]	≥ 10
